We go through eight molecules from EP1058559B1, “COMBINATION OF A SELECTIVE NMDA NR2B ANTAGONIST AND A COX-2 INHIBITOR” (MERCK SHARP & DOHME LTD., priority 1998, dated 1999).

In this data set the test system is motor co-ordination. Put plainly: accelerating rotarod (motor co-ordination) with observed behaviour. In kind it is in vivo, male Sprague Dawley rats. As to conditions: ID50 motor impairment / ID50 inhibition of allodynia. As for the experimental part:
The present Example examined whether NMDA NR2B receptor antagonists have an improved therapeutic window over unselective NNIDA/glycine antagonists and other ion channel blockers including lamotrigine and gabapentin, by comparing their anti-algesic effects with their liability to induce motor impairment in rats. Anti-algesic activity was assessed using an assay of neuropathic pain in rats (sciatic nerve ligation) and in a carrageenan-induced hyperalgesia assay. Motor impairment was measured using an accelerating rotarod.
For sciatic nerve ligation, male Sprague Dawley rats (180-220g) were anaesthetised with isofluorane, the left sciatic nerve exposed and 4 chromic catgut (4.0) ligatures were tied loosely around the nerve (spaced 1-2 mm apart) immediately proximal to the point of trifurcation. In shamoperated animals, the same dissection was performed but without ligation. Responses to mechanical pressure were assessed 7 days after ligation using a modified Randall-Selitto algesiometer in which constant force of […] was applied to the hind paw and the latency to struggle was recorded as the reaction time. Mechanical allodynia was defined as the difference in reaction time for sham and ligature rats. Reaction times for drug treated rats were expressed as a percentage of this response. Compounds were administered 1 h before the test. In the carrageenan-induced hyperalgesia assay, male Sprague Dawley rats (100-120 g) received an intraplantar injection of carrageenan (4.5 mg) and mechanical thresholds were determined 3 h later using a modified Ugo Basile Algesiometer. Control rats received saline (0.15 ml i.pl.). Hyperalgesia was defined as the difference in vocalisation threshold for saline- and carrageenan-injected rats. Paw pressure scores for drug-treated rats were expressed as a percentage of this response. Compounds were administered 2 h after carrageenan. To determine the effects of the compounds on motor co-ordination, male Sprague Dawley rats (160-180 g) were first trained to remain for 120 s on the rotarod apparatus revolving at 12 r.p.m. on the morning before the test. Animals then received drug treatments and 1 h later were placed on an accelerating rotarod (increasing from 4 - 40 r.p.m. during a 5 min period) and the time the rats were able to remain on the rotarod recorded. Lamotrigine, gabapentin and (±)-CP-101,606 were suspended in 0.5% methocel and administered orally (1 ml/kg). Ifenprodil, L-701,324, L-687,414 and (±)-Ro25-6981 were dissolved or suspended in 0.5% methocel and administered intraperitoneally (1 ml/kg). MK-801 was dissolved in distilled water and given i.p. (1 ml/kg). Doses of compounds refer to the free base.
To determine the effects of morphine and (±)-Ro25-6981 on motor co-ordination, male Sprague Dawley rats (160-180 g) were first trained to remain for 120 s on the rotarod apparatus revolving at. 12 r.p.m. on the morning before the test. Animals then received drug treatments and 1 h later were placed on an accelerating rotarod (increasing from 4 - 40 r.p.m. during a 5 min period) and the time the rats were able to remain on the rotarod recorded.

As for `C[C@@H](CN1CCC(Cc2ccccc2)CC1)[C@@H](O)c1ccc(O)cc1` (racemic) [(±)-Ro25-6981], the “Ratio Rotarod/ Rat Ligation” value is, setting by setting: (i.p.) at least 26; (i.p., listed as RO25-6981) at least 26.

`NCC1(CC(=O)O)CCCCC1` [Gabapentin]: the “Ratio Rotarod/ Rat Ligation” value (p.o.) is reported as 1.5.

In the case of `CC(C(O)c1ccc(O)cc1)N1CCC(Cc2ccccc2)CC1` (stereo not shown) [Ifenprodil], the “Ratio Rotarod/ Rat Ligation” value (i.p.) is recorded as 5.3.

For the molecule `C[C@@H]1CN(O)C(=O)[C@@H]1N` [L-687,414], the “Ratio Rotarod/ Rat Ligation” value (i.p.) was 5.4.

In the case of `O=c1[nH]c2cc(Cl)ccc2c(O)c1-c1cccc(Oc2ccccc2)c1` [L-701,324], the “Ratio Rotarod/ Rat Ligation” value (i.p.) is 0.7.

Regarding `Nc1nnc(-c2cccc(Cl)c2Cl)c(N)n1` [Lamotrigine], under “p.o.”, the “Ratio Rotarod/ Rat Ligation” value is over 45.

Turning to `C[C@]12N[C@H](Cc3ccccc31)c1ccccc12` [MK-801], the “Ratio Rotarod/ Rat Ligation” value (i.p.) was 1.1.

Take (±)-CP-101,606: the “Ratio Rotarod/ Rat Ligation” value runs as follows: (p.o.) over 49; (p.o., listed as CP-101,606) over 49.
